Test results: paper doi:10.1101/2025.07.20.665823

Chains of the proteins cited; added tags and fusions are not shown. Residues count along the entry.
UniProt Q9LX66, residues 25-830: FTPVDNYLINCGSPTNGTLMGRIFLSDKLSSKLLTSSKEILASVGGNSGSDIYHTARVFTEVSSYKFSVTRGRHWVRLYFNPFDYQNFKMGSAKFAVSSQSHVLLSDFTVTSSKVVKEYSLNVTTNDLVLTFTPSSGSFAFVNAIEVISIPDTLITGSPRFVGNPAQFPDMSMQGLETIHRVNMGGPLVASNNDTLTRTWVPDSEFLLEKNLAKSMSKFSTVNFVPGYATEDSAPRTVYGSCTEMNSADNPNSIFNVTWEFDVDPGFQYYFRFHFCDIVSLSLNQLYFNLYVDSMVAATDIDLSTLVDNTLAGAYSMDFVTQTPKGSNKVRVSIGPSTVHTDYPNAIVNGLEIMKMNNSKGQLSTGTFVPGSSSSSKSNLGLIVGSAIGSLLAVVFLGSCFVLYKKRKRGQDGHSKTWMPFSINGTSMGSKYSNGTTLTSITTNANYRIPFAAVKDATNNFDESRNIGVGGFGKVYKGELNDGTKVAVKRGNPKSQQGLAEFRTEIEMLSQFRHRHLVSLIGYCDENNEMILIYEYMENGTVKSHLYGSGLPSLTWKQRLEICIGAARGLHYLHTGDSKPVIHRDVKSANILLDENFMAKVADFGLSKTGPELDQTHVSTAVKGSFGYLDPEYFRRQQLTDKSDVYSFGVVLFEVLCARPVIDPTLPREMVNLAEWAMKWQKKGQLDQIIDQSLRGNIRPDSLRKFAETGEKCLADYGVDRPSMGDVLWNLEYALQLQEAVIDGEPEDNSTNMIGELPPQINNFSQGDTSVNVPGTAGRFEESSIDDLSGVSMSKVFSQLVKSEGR

T1: ERECTA-HA-TbID fusion protein (Arabidopsis thaliana) (UniProt Q42371)
T1 sequence: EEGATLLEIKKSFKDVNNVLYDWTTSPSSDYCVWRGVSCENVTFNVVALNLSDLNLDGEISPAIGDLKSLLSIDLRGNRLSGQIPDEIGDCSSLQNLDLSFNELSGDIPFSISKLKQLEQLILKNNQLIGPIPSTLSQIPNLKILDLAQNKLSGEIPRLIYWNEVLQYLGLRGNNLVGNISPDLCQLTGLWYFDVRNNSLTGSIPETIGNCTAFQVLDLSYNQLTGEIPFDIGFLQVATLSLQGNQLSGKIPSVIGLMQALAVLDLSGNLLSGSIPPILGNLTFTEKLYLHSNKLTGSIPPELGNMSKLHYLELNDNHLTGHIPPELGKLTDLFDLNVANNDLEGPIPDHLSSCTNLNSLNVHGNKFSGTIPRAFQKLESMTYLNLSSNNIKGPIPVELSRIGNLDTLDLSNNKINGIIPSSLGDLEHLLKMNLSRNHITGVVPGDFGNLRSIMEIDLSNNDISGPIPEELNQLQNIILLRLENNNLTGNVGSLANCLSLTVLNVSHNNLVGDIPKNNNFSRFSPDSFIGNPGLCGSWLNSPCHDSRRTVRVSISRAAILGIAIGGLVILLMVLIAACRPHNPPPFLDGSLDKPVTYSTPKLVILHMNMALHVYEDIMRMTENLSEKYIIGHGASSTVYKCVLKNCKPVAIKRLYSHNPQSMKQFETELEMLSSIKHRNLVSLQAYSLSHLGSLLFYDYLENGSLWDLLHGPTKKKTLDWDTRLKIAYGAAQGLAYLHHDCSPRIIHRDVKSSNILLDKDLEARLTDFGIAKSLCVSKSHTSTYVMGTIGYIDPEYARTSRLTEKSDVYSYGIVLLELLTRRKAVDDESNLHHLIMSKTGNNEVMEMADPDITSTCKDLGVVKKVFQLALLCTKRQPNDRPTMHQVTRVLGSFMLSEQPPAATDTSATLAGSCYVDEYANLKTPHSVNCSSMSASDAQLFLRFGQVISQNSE


Key:
[1] = target: T1, ERECTA-HA-TbID fusion protein (Arabidopsis thaliana); test: proximity labelling; membrane TbID-PL: microsomal fractionation of ERECTA-HA-TbID seedlings, microsomal vs cytosolic fractions; LC-MS
[2] = target: T1, ERECTA-HA-TbID fusion protein (Arabidopsis thaliana); test: proximity labelling; TbID-PL: ERECTA-HA-TbID seedlings, 50 μM biotin 1 hr at room temperature; biotinylated proteins on streptavidin magnetic beads; LC-MS; ERECTA-HA-TbID vs er-105
[3] = target: T1, ERECTA-HA-TbID fusion protein (Arabidopsis thaliana); test: proximity labelling; optimized TbID-PL: ERECTA-HA-TbID seedlings with exogenous biotin (1 hour) compared with mock treated control (without biotin, 1 hour); LC-MS
[4] = target: T1, ERECTA-HA-TbID fusion protein (Arabidopsis thaliana); test: affinity purification with mass spectrometry; ET-AP: lysate of five-day-old ERECTA-HA-TbID seedlings (1 % Triton X-100 lysis buffer) on anti-HA magnetic beads, 4 °C, 18 hrs; LC-MS; compared with er-105

| binding [1] | binding [2] | binding [3] | binding [4] | Molecule |
| --- | --- | --- | --- | --- |
| binds |  |  |  | BRASSINOSTEROID-… KINASE 1 (from UniProt Q944A7 1-512) (enzyme) |
| binds | binds | binds |  | HERK1 (from UniProt Q9LX66 25-830) (receptor) |
| binds | binds | binds |  | LIK1 (receptor) |
|  | binds |  |  | PICALM3 (endogenous) |
| binds | binds | binds |  | PICALM4A (endogenous) |
| binds | binds | binds |  | PICALM4B (endogenous) |
|  |  | binds |  | YODA (enzyme) |
|  | binds |  | binds | auxin efflux transporter PIN7 (protein, UniProt Q940Y5 1-619) MITWHDLYTVLTAVIPLYVAMILAYGSVRWWKIFSPDQCSGINRFVAIFAVPLLSFHFISSNNPYAMNLRFIAADTLQKLIMLTLLIIWANFTRSGSLEWSITIFSLSTLPNTLVMGIPLLIAMYGEYSGSLMVQIVVLQCIIWYTLLLFLFEYRGAKILIMEQFPETGASIVSFKVESDVVSLDGHDFLETDAQIGDDGKLHVTVRKSNASRRSFYGGGGTNMTPRPSNLTGAEIYSLNTTPRGSNFNHSDFYSMMGFPGGRLSNFGPADMYSVQSSRGPTPRPSNFEESCAMASSPRFGYYPGGAPGSYPAPNPEFSTGNKTGSKAPKENHHHVGKSNSNDAKELHMFVWGSNGSPVSDRAGLQVDNGANEQVGKSDQGGAKEIRMLISDHTQNGENKAGPMNGDYGGEEESERVKEVPNGLHKLRCNSTAELNPKEAIETGETVPVKHMPPASVMTRLILIMVWRKLIRNPNTYSSLIGLIWALVAFRWDVAMPKIIQQSISILSDAGLGMAMFSLGLFMALQPKLIACGNSTATFAMAVRFFTGPAVMAVAAMAIGLRGDLLRVAIVQAALPQGIVPFVFAKEYNVHPAILSTGVIFGMLIALPITLVYYILLGL |
|  | binds |  | binds | auxin efflux transporter PIN3 (protein, UniProt Q9S7Z8 1-640) MISWHDLYTVLTAVIPLYVAMILAYGSVRWWKIFSPDQCSGINRFVAIFAVPLLSFHFISTNNPYAMNLRFIAADTLQKIIMLSLLVLWANFTRSGSLEWSITIFSLSTLPNTLVMGIPLLIAMYGEYSGSLMVQIVVLQCIIWYTLLLFLFEFRGAKMLIMEQFPETAASIVSFKVESDVVSLDGHDFLETDAEIGDDGKLHVTVRKSNASRRSFCGPNMTPRPSNLTGAEIYSLSTTPRGSNFNHSDFYNMMGFPGGRLSNFGPADMYSVQSSRGPTPRPSNFEENCAMASSPRFGYYPGGGAGSYPAPNPEFSSTTTSTANKSVNKNPKDVNTNQQTTLPTGGKSNSHDAKELHMFVWSSNGSPVSDRAGLNVFGGAPDNDQGGRSDQGAKEIRMLVPDQSHNGETKAVAHPASGDFGGEQQFSFAGKEEEAERPKDAENGLNKLAPNSTAALQSKTGLGGAEASQRKNMPPASVMTRLILIMVWRKLIRNPNTYSSLIGLIWALVAFRWHVAMPKIIQQSISILSDAGLGMAMFSLGLFMALQPKLIACGNSVATFAMAVRFLTGPAVMAVAAIAIGLRGDLLRVAIVQAALPQGIVPFVFAKEYNVHPAILSTGVIFGMLIALPITLVYYILLGL |
|  |  | binds |  | BRI1-ASSOCIATED KINASE1/SOMATIC EMBRYOGENESIS RECEPTOR KINASE3 (receptor, UniProt Q94F62 26-615) NAEGDALSALKNSLADPNKVLQSWDATLVTPCTWFHVTCNSDNSVTRVDLGNANLSGQLVMQLGQLPNLQYLELYSNNITGTIPEQLGNLTELVSLDLYLNNLSGPIPSTLGRLKKLRFLRLNNNSLSGEIPRSLTAVLTLQVLDLSNNPLTGDIPVNGSFSLFTPISFANTKLTPLPASPPPPISPTPPSPAGSNRITGAIAGGVAAGAALLFAVPAIALAWWRRKKPQDHFFDVPAEEDPEVHLGQLKRFSLRELQVASDNFSNKNILGRGGFGKVYKGRLADGTLVAVKRLKEERTQGGELQFQTEVEMISMAVHRNLLRLRGFCMTPTERLLVYPYMANGSVASCLRERPESQPPLDWPKRQRIALGSARGLAYLHDHCDPKIIHRDVKAANILLDEEFEAVVGDFGLAKLMDYKDTHVTTAVRGTIGHIAPEYLSTGKSSEKTDVFGYGVMLLELITGQRAFDLARLANDDDVMLLDWVKGLLKEKKLEALVDVDLQGNYKDEEVEQLIQVALLCTQSSPMERPKMSEVVRMLEGDGLAERWEEWQKEEMFRQDFNYPTHHPAVSGWIIGDSTSQIENEYPSGPR |
| binds | binds | binds |  | ANGUSTIFOLIA (protein, UniProt O23702 1-636) MSKIRSSATMPHRDQPSPASPHVVTLNCIEDCALEQDSLAGVAGVEYVPLSRIADGKIESATAVLLHSLAYLPRAAQRRLRPHQLILCLGSADRAVDSTLAADLGLRLVHVDTSRAEEIADTVMALILGLLRRTHLLSRHALSASGWLGSLQPLCRGMRRCRGMVLGIVGRSVSARYLASRSLAFKMSVLYFDVPEGDEERIRPSRFPRAARRMDTLNDLLAASDVISLHCALTNDTVQILNAECLQHIKPGAFLVNTGSCQLLDDCAVKQLLIDGTIAGCALDGAEGPQWMEAWVKEMPNVLILPRSADYSEEVWMEIREKAISILHSFFLDGVIPSNTVSDEEVEESEASEEEEQSPSKHEKLAIVESTSRQQGESTLTSTEIVRREASELKESLSPGQQHVSQNTAVKPEGRRSRSGKKAKKRHSQQKYMQKTDGSSGLNEESTSRRDDIAMSDTEEVLSSSSRCASPEDSRSRKTPLEVMQESSPNQLVMSSKKFIGKSSELLKDGYVVALYAKDLSGLHVSRQRTKNGGWFLDTLSNVSKRDPAAQFIIAYRNKDTVGLRSFAAGGKLLQINRRMEFVFASHSFDVWESWSLEGSLDECRLVNCRNSSAVLDVRVEILAMVGDDGITRWID |
| binds |  |  |  | HAESA-LIKE1 (receptor, UniProt Q9SGP2 16-996) LNQDGFILQQVKLSLDDPDSYLSSWNSNDASPCRWSGVSCAGDFSSVTSVDLSSANLAGPFPSVICRLSNLAHLSLYNNSINSTLPLNIAACKSLQTLDLSQNLLTGELPQTLADIPTLVHLDLTGNNFSGDIPASFGKFENLEVLSLVYNLLDGTIPPFLGNISTLKMLNLSYNPFSPSRIPPEFGNLTNLEVMWLTECHLVGQIPDSLGQLSKLVDLDLALNDLVGHIPPSLGGLTNVVQIELYNNSLTGEIPPELGNLKSLRLLDASMNQLTGKIPDELCRVPLESLNLYENNLEGELPASIALSPNLYEIRIFGNRLTGGLPKDLGLNSPLRWLDVSENEFSGDLPADLCAKGELEELLIIHNSFSGVIPESLADCRSLTRIRLAYNRFSGSVPTGFWGLPHVNLLELVNNSFSGEISKSIGGASNLSLLILSNNEFTGSLPEEIGSLDNLNQLSASGNKFSGSLPDSLMSLGELGTLDLHGNQFSGELTSGIKSWKKLNELNLADNEFTGKIPDEIGSLSVLNYLDLSGNMFSGKIPVSLQSLKLNQLNLSYNRLSGDLPPSLAKDMYKNSFIGNPGLCGDIKGLCGSENEAKKRGYVWLLRSIFVLAAMVLLAGVAWFYFKYRTFKKARAMERSKWTLMSFHKLGFSEHEILESLDEDNVIGAGASGKVYKVVLTNGETVAVKRLWTGSVKETGDCDPEKGYKPGVQDEAFEAEVETLGKIRHKNIVKLWCCCSTRDCKLLVYEYMPNGSLGDLLHSSKGGMLGWQTRFKIILDAAEGLSYLHHDSVPPIVHRDIKSNNILIDGDYGARVADFGVAKAVDLTGKAPKSMSVIAGSCGYIAPEYAYTLRVNEKSDIYSFGVVILEIVTRKRPVDPELGEKDLVKWVCSTLDQKGIEHVIDPKLDSCFKEEISKILNVGLLCTSPLPINRPSMRRVVKMLQEIGGGDEDSLHKIRDDKDGKLTPYYNEDTSDQGSIA |
|  |  |  | binds | TOO MANY MOUTHS (receptor, UniProt Q9SSD1 24-496) FTVITSDSTAPSALIDGPQTGFTMTNDGARTEPDEQDAVYDIMRATGNDWAAAIPDVCRGRWHGIECMPDQDNVYHVVSLSFGALSDDTAFPTCDPQRSYVSESLTRLKHLKALFFYRCLGRAPQRIPAFLGRLGSSLQTLVLRENGFLGPIPDELGNLTNLKVLDLHKNHLNGSIPLSFNRFSGLRSLDLSGNRLTGSIPGFVLPALSVLDLNQNLLTGPVPPTLTSCGSLIKIDLSRNRVTGPIPESINRLNQLVLLDLSYNRLSGPFPSSLQGLNSLQALMLKGNTKFSTTIPENAFKGLKNLMILVLSNTNIQGSIPKSLTRLNSLRVLHLEGNNLTGEIPLEFRDVKHLSELRLNDNSLTGPVPFERDTVWRMRRKLRLYNNAGLCVNRDSDLDDAFGSKSGSTVRLCDAETSRPAPSGTVQHLSREEDGALPDGATDVSSTSKSLGFSYLSAFFLVFPNFIFMLISS |

Results are given in words; binding and its absence hold for the method and conditions named. In cells and extracts the contact can be indirect. These calls come from enrichment with a bait or labelling near it, and not all partners need be listed. Where a sequence is shown, tags or fusion partners need not be part of it.
